Measured values: PMC12516185
No constants are given. Whether binding was seen depends on the method and setting. Some results given as binding are weak or reduced against the parent protein; the word gives no strength. Sequences can lack the tags named with a protein.

Columns and labels:
[1] = target: maize isoamylase1 (ISA1), mature protein from residue 50, GAL4 fusion (maize (Zea mays L.)) (UniProt O22637); assay: two-hybrid; Matchmaker Gold yeast two-hybrid; GAL4-AD fusions (pGADT7, strain Y187) mated with GAL4-BD fusions (pGBKT7, strain Y2HGold); diploids plated on relaxed (-Leu, -Trp, -His) and stringent (-Leu, -Trp, -His, -Ade, +AbA) plates; grown 2 d at 30 C
[2] = target: Zea mays pullulanase1 (ZPU1), from residue 80, GAL4 fusion (maize (Zea mays L.)) (UniProt O81638); assay: as above

Row | Binder | binding [1] | binding [2]
1 | maize isoamylase1 (ISA1), mature protein from residue 50, GAL4 fusion (enzyme, UniProt O22637 50-789) VAEAVQAEEDDDDDDEEVAEERFALGGACRVLAGMPAPLGATALRGGVNFAVYSSGASAASLCLFAPGDLKADRVTEEVPLDPLLNRTGNVWHVFIHGDQLHGMLYGYRFDGVFAPERGQYYDVSNVVVDPYAKAVVSRGEYGVPAPGGSCWPQMAGMIPLPYNKFDWQGDLPLGYHQKDLVIYEMHLRGFTKHNSSKTKHPGTYIGAVSKLDHLKELGVNCIELMPCHEFNELEYFSSSSKMNFWGYSTINFFSPMARYSSSGIRDSGCGAINEFKAFVREAHKRGIEVIMDVVFNHTAEGNEKGPILSFRGIDNSTYYMLAPKGEFYNYSGCGNTFNCNHPVVREFIVDCLRYWVTEMHVDGFRFDLASILTRGCSLWDPVNVYGSPMEGDMITTGTPLVAPPLIDMISNDPILGNVKLIAEAWDAGGLYQVGQFPHWNVWSEWNGKYRDTVRQFIKGTDGFAGAFAECLCGSPQLYQAGGRKPWHSINFVCAHDGFTLADLVTYNSKYNLSNGEDNRDGENHNLSWNCGEEGEFASLSVRRLRKRQMRNFFVCLMVSQGVPMFYMGDEYGHTKGGNNNTYCHDHYVNYFRWDKKEEQSSDLYRFCRLMTKFRKECESLGLEDFPTSERLKWHGHQPGKPDWSEASRFVAFTMKDETKGEIYVAFNTSHLPVVVGLPERSGFRWEPVVDTGKEAPYDFLTDGLPDRAVTVYQFSHFLNSNLYPMLSYSSIILVLRPDV | binds | –
2 | Zea mays pullulanase1 (ZPU1), from residue 80, GAL4 fusion (enzyme, UniProt O81638 80-962) AQGFLLDARAYWVTKSLIAWNISDQKTSLFLYASRNATMCMSSQDMKGYDSKVELQPENDGLPSSVTQKFPFISSYRAFRIPSSVDVATLVKCQLAVASFDAHGNRQDVTGLQLPGVLDDMFAYTGPLGTIFSEEAVSMYLWAPTAQDVSVSFYDGPAGPLLETVQLNELNGVWSVTGPRNWENRYYLYEVTVYHQTTGNIEKCLAADPYARGLSANSTRTWLVDINNETLKPLAWDGLAAEKPRLDSFSDISIYELHIRDFSAHDSTVDCPFRGGFCAFTFQDSVGIEHLKKLSDAGLTHVHLLPSFQFGGVDDIKSNWKCVDEIELSKLPPGSDLQQAAIVAIQEEDPYNWGYNPVVWGVPKGSYASNPDGPSRIIEYRLMVQALNRLGLRVVMDVVYNHLYSSGPFAITSVLDKIVPGYYLRRDSNGQTENSAAVNNTASEHFMVDRLIVDDLLNWAVNYKVDGFRFDLMGHIMKKTMIRAKSALQSLTIDEHGVDGSKIYLYGEGWNFGEVAENQRGINGSQLNMSGTGIGSFNDRIRDAINGGSPFGNPLQQGFSTGLFLEPNGFYQGNETETRLTLATYADHIQIGLAGNLKDYVVISHTGEARKGSEIRTFDGSPVGYASSPIETINYASAHDNETLFDIISLKTPMDLSIDERCRINHLSTSMIALSQGIPFFHAGDEILRSKSLDRDSYDSGDWFNKIDFTYETNNWGVGLPPREKNEGSWPLMKPRLENPSFKPAKHDIIAALDKFIDILKIRYSSPLFRLTTASDIVQRVHFHNTGPSLVPGVIVMSIEDARNDRHDMAQIDETFSCVVTVFNVCPYEVSIEIPDLASLRLQLHPVQVNSSDALARQSAYDTATGRFTVPKRTAAVFVEPRC | – | no binding
